Measured values taken from paper PMC9249852.

By UniProt entry, the sequences of proteins in these tests, tags left out. Where a name states a change or a piece, a line headed by the entry shows the natural chain unless it says otherwise.
UniProt P09077: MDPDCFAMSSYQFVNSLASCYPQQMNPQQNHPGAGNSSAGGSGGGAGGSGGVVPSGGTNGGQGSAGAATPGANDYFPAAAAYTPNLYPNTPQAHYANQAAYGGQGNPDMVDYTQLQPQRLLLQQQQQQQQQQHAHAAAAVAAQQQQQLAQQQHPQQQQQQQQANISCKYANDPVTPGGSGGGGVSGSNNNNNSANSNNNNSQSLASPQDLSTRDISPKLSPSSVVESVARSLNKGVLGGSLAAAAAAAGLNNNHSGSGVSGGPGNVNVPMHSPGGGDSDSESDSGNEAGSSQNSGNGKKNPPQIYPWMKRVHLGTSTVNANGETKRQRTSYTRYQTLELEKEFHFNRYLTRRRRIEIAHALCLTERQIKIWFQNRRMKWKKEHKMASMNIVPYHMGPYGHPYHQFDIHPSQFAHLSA

Biological target: EGFP-Scr-FLAG (UniProt P09077)
Test: biotin-DNA pull-down, anti-FLAG western
Conditions: without Dll, Pull-down in 1 ml: 500 ul protein in dialysis buffer (20 mM HEPES pH 8.0, 200 mM NaCl, 10% glycerol, 2 mM MgCl2), recombinant protein, residues 1-417, label: 5' biotin on strand 2 (SR1 primer)

Sequence	binding result	binding result (mCherry control has no effect)
AATATTTTATAAATTTAATAAATTGAGTCGTATGCCGTCTTCTGCTTG (double strand) [probe-dsx (dsx-1)]	binds more weakly	
ATCGTTAAATTACCGCAATTTGCATGTTCGTATGCCGTCTTCTGCTTG (double strand) [probe-dpy (dpy-1)]	binds more weakly	
TGGGCCTGGTAATTAATTTAATTATCCAGGTCGTATGCCGTCTTCTGCTTG (double strand) [probe-Scr-Dll consensus]		binds more weakly

Construct, isoform or probe ends are uncertain for at least one entry. A weaker result is weaker than the reference pair of the same experiment. At least one verdict rests on a figure or table, not on a statement of the authors.
